This is an account of results in patent US20120225180A1, “SALTINESS-IMPROVING AGENT FOR SALTY FOOD AND DRINK” (priority 2009, published 2012).

The data set is described as follows: Saltiness evaluation of shiokara (comparison evaluation of flavor by 10 panelists). The conditions noted are these: sedanenolide in an amount of 10 ppm. The class given is in vivo. How it is done: Sedanenolide was added as a saltiness-improving agent (salty stimulation-reducing agent) of the present invention to commercially available salted squid to obtain shiokara containing sedanenolide at the concentrations shown in the following Table 1.
A: the number of panelists who felt stimulation of saltiness B: the number of panelists who slightly felt stimulation of saltiness N: the number of panelists who judged that the stimulation of saltiness was reduced to mild saltiness Flavor judgment: the number of panelists who judged it as most proper saltiness

Take `CCCC[C@@H]1OC(=O)C2=C1CCC=C2` [sedanenolide]: the “aroma other than saltiness” value is listed as “a slight spicy aroma other than saltiness was also felt”.
